The record followed here is patent publication US7045339B2, “Electron donors for chlorinated solvent source area bioremediation” (SRP Technologies, Inc., priority 2002, dated 2006).

A short description of the series: Field evaluation of enhanced in situ bioremediation at Test Area North (sodium lactate injection, well TSF-05).

The structures appear in SMILES notation.

Turning to `CC(O)C(=O)[O-].[Na+]` (centres unmarked) [sodium lactate], for the setting “all wells receiving significant lactate concentrations”, the “Reductive dechlorination of TCE to ethene” value is “Enhanced reductive dechlorination of TCE to ethene was observed”. In addition, the “TCE concentrations deep in the aquifer soon after addition began” value (well TAN-26, FIG. 4) is recorded as “dramatic increase”.
